Assay results from paper PMC11811815.
No constants are given. Whether binding was seen depends on the method and setting. In cells and extracts the contact can be indirect. Some entries that bind do so weakly or less than the wild type. Where a sequence is shown, tags or fusion partners need not be part of it.

Amino acid sequences for entries named in this document (tags omitted).
UniProt P52630: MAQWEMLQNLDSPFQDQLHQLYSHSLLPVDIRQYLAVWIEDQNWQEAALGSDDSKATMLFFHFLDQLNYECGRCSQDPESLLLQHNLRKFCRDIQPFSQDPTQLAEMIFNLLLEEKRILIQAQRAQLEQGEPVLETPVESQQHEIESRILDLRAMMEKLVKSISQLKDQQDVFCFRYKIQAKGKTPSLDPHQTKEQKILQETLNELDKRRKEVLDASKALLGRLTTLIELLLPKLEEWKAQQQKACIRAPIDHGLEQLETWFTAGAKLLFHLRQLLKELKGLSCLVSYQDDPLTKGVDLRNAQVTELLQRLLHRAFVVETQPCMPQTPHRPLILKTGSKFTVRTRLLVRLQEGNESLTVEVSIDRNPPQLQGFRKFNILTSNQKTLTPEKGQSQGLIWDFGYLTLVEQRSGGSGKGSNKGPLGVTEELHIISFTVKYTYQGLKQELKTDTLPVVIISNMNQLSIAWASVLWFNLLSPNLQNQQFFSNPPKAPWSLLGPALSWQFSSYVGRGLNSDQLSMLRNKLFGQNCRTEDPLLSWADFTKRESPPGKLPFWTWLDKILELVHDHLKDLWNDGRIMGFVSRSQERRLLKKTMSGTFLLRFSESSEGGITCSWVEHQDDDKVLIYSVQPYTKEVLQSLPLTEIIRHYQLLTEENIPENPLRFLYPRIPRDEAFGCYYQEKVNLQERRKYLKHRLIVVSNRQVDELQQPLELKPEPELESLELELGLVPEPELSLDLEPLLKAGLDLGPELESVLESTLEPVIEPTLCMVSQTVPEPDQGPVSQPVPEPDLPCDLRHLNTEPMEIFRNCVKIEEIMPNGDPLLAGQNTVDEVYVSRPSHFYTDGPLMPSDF

T1: V5-tagged IFNAR2 cytosolic domain (aa 265-515) (UniProt P48551)
T1 sequence: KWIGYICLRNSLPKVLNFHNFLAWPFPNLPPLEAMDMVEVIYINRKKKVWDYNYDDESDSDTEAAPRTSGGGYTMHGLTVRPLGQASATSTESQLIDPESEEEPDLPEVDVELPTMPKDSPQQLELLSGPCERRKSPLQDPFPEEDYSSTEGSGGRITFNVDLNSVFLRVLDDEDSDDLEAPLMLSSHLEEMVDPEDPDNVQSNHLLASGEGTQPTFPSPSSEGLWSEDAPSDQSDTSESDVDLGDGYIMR

B1: USP18.I60N-3XFlag (enzyme, UniProt Q9UMW8-1 1-372)
chain: MSKAFGLLRQICQSILAESSQSPADLEEKKEEDSNMKREQPRERPRAWDYPHGLVGLHNNGQTCCLNSLIQVFVMNVDFTRILKRITVPRGADEQRRSVPFQMLLLLEKMQDSRQKAVRPLELAYCLQKCNVPLFVQHDAAQLYLKLWNLIKDQITDVHLVERLQALYTIRVKDSLICVDCAMESSRNSSMLTLPLSLFDVDSKPLKTLEDALHCFFQPRELSSKSKCFCENCGKKTRGKQVLKLTHLPQTLTIHLMRFSIRNSQTRKICHSLYFPQSLDFSQILPMKRESCDAEEQSGGQYELFAVIAHVGMADSGHYCVYIRNAVDGKWFCFNDSNICLVSWEDIQCTYGNPNYHWQETAYLLVYMKMEC
B2: USP18.C64S-3XFlag (enzyme, UniProt Q9UMW8-1 1-372)
chain: MSKAFGLLRQICQSILAESSQSPADLEEKKEEDSNMKREQPRERPRAWDYPHGLVGLHNIGQTSCLNSLIQVFVMNVDFTRILKRITVPRGADEQRRSVPFQMLLLLEKMQDSRQKAVRPLELAYCLQKCNVPLFVQHDAAQLYLKLWNLIKDQITDVHLVERLQALYTIRVKDSLICVDCAMESSRNSSMLTLPLSLFDVDSKPLKTLEDALHCFFQPRELSSKSKCFCENCGKKTRGKQVLKLTHLPQTLTIHLMRFSIRNSQTRKICHSLYFPQSLDFSQILPMKRESCDAEEQSGGQYELFAVIAHVGMADSGHYCVYIRNAVDGKWFCFNDSNICLVSWEDIQCTYGNPNYHWQETAYLLVYMKMEC
B3: USP18.wt-3XFlag (enzyme, UniProt Q9UMW8-1 1-372)
chain: MSKAFGLLRQICQSILAESSQSPADLEEKKEEDSNMKREQPRERPRAWDYPHGLVGLHNIGQTCCLNSLIQVFVMNVDFTRILKRITVPRGADEQRRSVPFQMLLLLEKMQDSRQKAVRPLELAYCLQKCNVPLFVQHDAAQLYLKLWNLIKDQITDVHLVERLQALYTIRVKDSLICVDCAMESSRNSSMLTLPLSLFDVDSKPLKTLEDALHCFFQPRELSSKSKCFCENCGKKTRGKQVLKLTHLPQTLTIHLMRFSIRNSQTRKICHSLYFPQSLDFSQILPMKRESCDAEEQSGGQYELFAVIAHVGMADSGHYCVYIRNAVDGKWFCFNDSNICLVSWEDIQCTYGNPNYHWQETAYLLVYMKMEC

Biological target: T1, V5-tagged IFNAR2 cytosolic domain (aa 265-515)
Test: co-IP; HEK293T co-transfected with IFNAR2.CTD-V5, STAT2-Myc and Flag-tagged USP18 (wt, I60N or C64S); lysed 48 h after transfection; anti-V5 antibody on protein G Dynabeads; blot for V5, STAT2 and USP18

| Molecule | binding |
| --- | --- |
| Myc-tagged STAT2 (from UniProt P52630 1-851) | binds |
| B1 | binds |
| B2 | binds |
| B3 | binds |
